The values below come from PMC5773591, “Structural basis of trans-synaptic interactions between PTPδ and SALMs for inducing synapse formation” (Nature Communications, 2018).

No constants are given. Whether binding was seen depends on the method and setting. Sequences can lack the tags named with a protein.

Assay [1] has as its target human SALM5 LRR–Ig-His6 N158A (human) (UniProt Q96NI6). Kind of assay: SEC-MALS; SALM LRR–Ig proteins at 0.5 g/L on ENrich SEC 650 in 20 mM Tris-HCl (pH 7.4), 250 mM NaCl; dimer of monomers; both purified.
Assay [2] deals with human SALM5 LRR–Ig-His6 Q134N (human) (UniProt Q96NI6). The description is as above.

B1: human SALM5 LRR–Ig-His6 N158A (domain or fragment, UniProt Q96NI6 18-378)
chain: QICPKRCVCQILSPNLATLCAKKGLLFVPPNIDRRTVELRLADNFVTNIKRKDFANMTSLVDLTLSRNTISFITPHAFADLRNLRALHLNSNRLTKITNDMFSGLSNLHHLILNNNQLTLISSTAFDDVFALEELDLSYNALETIPWDAVEKMVSLHTLSLDHNMIDNIPKGTFSHLHKMTRLDVTSNKLQKLPPDPLFQRAQVLATSGIISPSTFALSFGGNPLHCNCELLWLRRLSREDDLETCASPPLLTGRYFWSIPEEEFLCEPPLITRHTHEMRVLEGQRATLRCKARGDPEPAIHWISPEGKLISNATRSLVYDNGTLDILITTVKDTGAFTCIASNPAGEATQIVDLHIIKLP
Regarding B1, the binding entry in assay [1] is “no binding (tested: 0.5 g L^−1)”.

B2: human SALM5 LRR–Ig-His6 Q134N (domain or fragment, UniProt Q96NI6 18-378)
chain: QICPKRCVCQILSPNLATLCAKKGLLFVPPNIDRRTVELRLADNFVTNIKRKDFANMTSLVDLTLSRNTISFITPHAFADLRNLRALHLNSNRLTKITNDMFSGLSNLHHLILNNNNLTLISSTAFDDVFALEELDLSYNNLETIPWDAVEKMVSLHTLSLDHNMIDNIPKGTFSHLHKMTRLDVTSNKLQKLPPDPLFQRAQVLATSGIISPSTFALSFGGNPLHCNCELLWLRRLSREDDLETCASPPLLTGRYFWSIPEEEFLCEPPLITRHTHEMRVLEGQRATLRCKARGDPEPAIHWISPEGKLISNATRSLVYDNGTLDILITTVKDTGAFTCIASNPAGEATQIVDLHIIKLP
Take B2: the binding result in assay [2] is “no binding (tested: 0.5 g L^−1)”.
